Assay results: PubChem BioAssay AID2685 (National Center for Advancing Translational Sciences (NCATS), 2010)
The other results are listed elsewhere or left out. The main result of the screen is listed elsewhere. These columns were measured beside it and carry no call. Compounds called inactive in the main read-out are mostly missing here. Words in brackets tell the shape of the fitted curve; partial curves, single points and poor fits give uncertain potencies.

Test: qHTS Assay for Lipid Storage Modulators in Drosophila S3 Cells;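 for cell number change: cells counted by Cell Tracker Red CMTPX staining in the red channel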
Settings: BODIPY lipid droplet fluorescence, 18-24 h; for cell number change: measured here: cell count max response, cells fed with added oleic acid
How it was run: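 Laser-scanning cytometry quantifies lipid droplet accumulation (500–530 nm total intensity; droplet/cell object ratio) in oleic acid-fed (400 uM added) Drosophila S3 cells treated with a concentration series. 20 uM Triacsin C defined 100% inhibition.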

[1] = measured here: lipid fluorescence (Fed channel) AC50, cells fed with added oleic acid
[2] = measured here: cell number channel AC50, cells fed with added oleic acid

| Structure (SMILES) | cell number change | AC50 [1] | AC50 [2] |
| --- | --- | --- | --- |
| CCOC(=O)/C=c1\sc2n(c1=O)CCN=2 | 1.36% | 0.461 µM [falling, full curve] | – |
| COc1ccc(CNC(=O)c2noc3c2CCCCC3)cc1 | 31.7% | 29.1 µM [rising, partial curve] | 1.84 µM [rising, partial curve] |
| O=C(CN1C(=O)NC2(CCc3ccccc32)C1=O)NCc1ccccc1Cl (stereo not drawn) | -28.1% | 0.411 µM [falling, full curve, poor fit] | – |
| Cc1ccc2nc(-c3ccc(S(=O)(=O)N4CCOCC4)cc3)cn2c1 | 0.338% | 29.1 µM [falling, single point] | – |
| NC(N)=Nc1nc2ccccc2o1 | 46.5% | 18.4 µM [rising, single point] | 0.206 µM [rising, full curve] |
| Cc1ccc([C@@H]2[C@@H]3C(=O)N(C)C(=O)[C@@H]3[C@]3(Cc4ccccc4)C(=O)N(Cc4ccccn4)CC(=O)N23)o1 | 17.5% | – | – |
| CCOC(=O)c1nnn(-c2nonc2N)c1CNc1ccccc1 | -14.8% | 2.31 µM [rising, single point] | – |
| Cc1cccc2cc(CN(CC3CCCO3)C(=O)c3ccco3)c(=O)[nH]c12 (stereo not drawn) | 17.5% | 1.3 µM [rising, full curve] | – |
| CC1=CC(=O)C(C(C)C)=C/C1=N/OS(=O)(=O)c1ccccc1 | -76.2% | 0.0259 µM [falling, full curve] | 0.058 µM [falling, full curve] |
| O=[N+]([O-])c1cc(/C=N/Nc2nc(N3CCCCC3)nc(N3CCCCC3)n2)ccc1O | 15.5% | 6.51 µM [rising, single point] | – |
| CC(=O)N(C)c1ccc(NC(=O)C(Sc2ccccc2)c2ccccc2)cc1 (stereo not drawn) | -24.1% | – | 0.103 µM [falling, full curve, poor fit] |
| CSc1ccc(/C=C/C(=O)OCC(=O)NC2CCS(=O)(=O)C2)cc1 (stereo not drawn) | -16% | 29.1 µM [falling, single point] | – |
| CCCOC1CCCN(C(=O)CCc2nnc(-c3ccc4c(c3)OCO4)o2)C1 (stereo not drawn) | 8.5% | 0.092 µM [falling, full curve] | – |
| CCNC(=S)N(Cc1cc2cccc(C)c2[nH]c1=O)C1CCCC1 | -6.62% | – | – |
| CNC(=O)N(O)C1N(/N=C/c2ccccc2F)C(=S)SC1(C)C (stereo not drawn) | -1.54% | – | – |
| COCCOC(=O)c1[nH]c2c(c1C)C(=O)CC(c1ccc(F)cc1)C2 (stereo not drawn) | – | 2.06 µM [rising, partial curve] | 0.92 µM [rising, single point] |
| Cc1cc2cc(CN(Cc3ccc4c(c3)OCO4)Cc3nnnn3C3CCCC3)c(=O)[nH]c2cc1C | -18.1% | – | – |
| CCN(CC)c1ccc(C(=S)N2CCN(c3ccccc3)CC2)cc1 | 31.6% | – | 11.6 µM [rising, partial curve] |
| Cc1ccc(S(=O)(=O)N2CCCCC2)cc1NC(=O)Nc1ccc(Cl)cc1Cl | 2.46% | – | – |

| Structure (SMILES) | cell number change | AC50 [1] | AC50 [2] |
| --- | --- | --- | --- |
| Cc1c(C)n(Cc2ccc(Cl)cc2)c2ccc(C(=O)NCCCN3CCOCC3)cc12 | – | 6.51 µM [rising, single point] | 0.231 µM [rising, partial curve, poor fit] |
| CCc1c(C)sc(NC(=O)C2CC2)c1C(=O)OC(C)C | – | 1.64 µM [falling, partial curve] | – |
| CCNc1nc(Oc2ccc(=O)n(C)n2)nc(N2CCOCC2)n1 | 90.8% | – | 16.4 µM [rising, partial curve] |
| Cc1ccc(NC(=O)c2ccc(CSc3ncnc4nc[nH]c34)cc2)c(C)c1 | 20.7% | 29.1 µM [rising, single point] | – |
| Cc1ccccc1NC(=O)c1cccc(NC(=O)c2ccco2)c1 | -38.9% | 14.6 µM [falling, partial curve, poor fit] | 20.6 µM [falling, partial curve, poor fit] |
| COc1ccccc1NC(=O)c1oc2ccccc2c1NC(=O)c1ccco1 | – | 0.651 µM [rising, full curve] | 3.26 µM [rising, partial curve] |
| Cc1ccc(NC(=O)COC(=O)c2cc(-c3cccs3)nn2-c2ccccc2)cc1[N+](=O)[O-] | – | 29.1 µM [rising, single point] | – |
| CC(C)NC(=S)NC(=O)/C=C/c1cccc2ccccc12 | 32.6% | 20.6 µM [rising, single point] | 0.651 µM [rising, full curve, poor fit] |
| CC(=O)Nc1ccc(NC(=O)C2(C)CC2(Cl)Cl)cc1 (stereo not drawn) | -30.6% | 29.1 µM [falling, single point] | 2.59 µM [falling, full curve] |
| Cc1ccc(O)c(N/C=C/C(=O)c2ccc(F)cc2)c1 | -46.7% | 18.4 µM [falling, single point] | – |
| S=C(NCC1CCCO1)Nc1ccccc1Cl (stereo not drawn) | 0.627% | – | – |
| CC(Oc1ccc(Br)cc1)C(=O)N1CCN(c2ccccn2)CC1 (stereo not drawn) | -24.1% | 29.1 µM [rising, single point] | – |
| CCCCn1c(N)c(NCc2ccccc2OC)c(=O)[nH]c1=O | 51.9% | – | 0.00411 µM [rising, full curve, poor fit] |
| Cc1ccc(/C=N/NC(=O)CCCOc2ccc(Cl)cc2Cl)cc1 | -61.5% | 16.4 µM [falling, single point] | 20.6 µM [falling, single point] |
| Cc1cccn2cc(-c3ccc(S(=O)(=O)N4CCOCC4)cc3)nc12 | 8.16% | – | 0.00461 µM [rising, full curve, poor fit] |
| Cc1ccc(S(=O)(=O)N(C)C)cc1NC(=S)NCc1ccco1 | 12.2% | 0.517 µM [rising, full curve, poor fit] | – |
| O=S(=O)(c1ccccc1)[C@@]1(c2ccc(Br)cc2)C[C@@H]2ON=C(c3cccc(Br)c3)[C@@H]2C1 | – | 4.11 µM [rising, single point] | – |
| COC(=O)CN1CCN(C(=O)c2ccco2)CC1 | -10.5% | 1.16 µM [falling, full curve, poor fit] | – |
| Cc1ccc(Cl)cc1N1CCN(S(=O)(=O)c2cccc(S(=O)(=O)N3CCCC3)c2)CC1 | 33% | 6.51 µM [falling, single point] | 29.1 µM [rising, single point] |

| Structure (SMILES) | cell number change | AC50 [1] | AC50 [2] |
| --- | --- | --- | --- |
| Fc1ccc(CN2CCCCCC2)c(F)c1 | -35.2% | 29.1 µM [falling, single point] | 29.1 µM [falling, single point] |
| COc1ccc(S(=O)(=O)Nc2ccc(S(=O)(=O)N(C)C)cc2)cc1[N+](=O)[O-] | 5.31% | 29.1 µM [falling, single point] | – |
| Cc1ccc2c(c1)/C(=C/c1ccccc1F)C(=O)N2 | -42.2% | – | 14.6 µM [falling, partial curve] |
| COc1cccc(NC(=O)CCc2c(C)nn(-c3ccc(N4CCOCC4)nn3)c2C)c1 | -2.14% | 5.8 µM [falling, full curve, poor fit] | – |
| Cc1ccc(-c2csc(NC(=O)CSc3nc(C)cc(=O)[nH]3)n2)cc1 | -42.4% | 29.1 µM [falling, single point] | 29.1 µM [falling, single point] |
| COc1ccc(S(=O)(=O)N2CCCCC2)cc1NC(=O)c1ccc2c(c1)OCO2 | 22% | 4.11 µM [rising, partial curve, poor fit] | – |
| Cc1cccc(CC(=O)NCC(=O)NCc2cc(=O)n(C)c(=O)n2C)c1 | 20.6% | 8.2 µM [rising, partial curve] | – |
| CN1CCN(/C(=N\S(=O)(=O)c2ccc(F)cc2)c2ccccc2)CC1 | -63.1% | 6.51 µM [falling, single point] | 23.1 µM [falling, partial curve, poor fit] |
| Cc1ccc(C2CC(=O)NC(SCC(=O)OCc3ccccc3)=C2C#N)o1 (stereo not drawn) | -22.1% | – | 0.00461 µM [falling, full curve, poor fit] |
| COC(=O)c1ccc(C2C(C(=O)Nc3ccc(C)cc3C)=C(C)Nc3ncnn32)cc1 (stereo not drawn) | 12.9% | 0.206 µM [rising, full curve] | 0.146 µM [rising, full curve, poor fit] |
| CCOC(=O)/C=C1\SCC(=O)N1CC(=O)Nc1cccc(F)c1 | -35.1% | 1 µM [rising, partial curve] | – |
| CCn1c(N)nc2ccccc21 | -17% | – | – |
| COc1ccccc1NC(=O)c1ccc(NC(=O)CSc2n[nH]c(N)n2)cc1 | -7.04% | 0.651 µM [falling, single point] | – |
| N#Cc1nc(-c2cccs2)oc1NCCN1CCOCC1 | 23.9% | – | 0.146 µM [rising, full curve, poor fit] |
| O=c1oc(-c2ccc([N+](=O)[O-])cc2)nc2ccccc12 | 13.1% | 0.00461 µM [rising, full curve, poor fit] | 0.231 µM [rising, full curve, poor fit] |
| COc1ccc(-c2cc(C(=O)NN3CCOCC3)c3ccccc3n2)cc1OC | -3.31% | – | – |
| CC(C)Cn1c(N)c(C(=O)CSc2nnnn2C)c(=O)n(C)c1=O | 1.76% | 2.31 µM [rising, partial curve] | – |
| COCCNC(=O)/C(=C/c1ccccc1Cl)c1ccccc1 | -56.8% | 6.51 µM [rising, single point] | 29.1 µM [falling, single point] |
| CCOC(=O)c1sc(Nc2nc3cc4c(cc3s2)OCO4)cc1C | -48% | 18.4 µM [falling, single point] | 16.4 µM [falling, single point] |

Some of the entries so far, with tabs.
Structure (SMILES)	cell number change	AC50 [1]	AC50 [2]
COCCNC(=O)/C(=C/c1ccccc1Cl)c1ccccc1	-56.8%	6.51 µM [rising, single point]	29.1 µM [falling, single point]
CCOC(=O)c1sc(Nc2nc3cc4c(cc3s2)OCO4)cc1C	-48%	18.4 µM [falling, single point]	16.4 µM [falling, single point]
